Experimental data published in the supplement of paper PMC10849652.
Some of the results follow.

By UniProt entry, the sequences of proteins in these tests, tags left out. Where a name states a change or a piece, a line headed by the entry shows the natural chain unless it says otherwise.
UniProt Q9NWD9: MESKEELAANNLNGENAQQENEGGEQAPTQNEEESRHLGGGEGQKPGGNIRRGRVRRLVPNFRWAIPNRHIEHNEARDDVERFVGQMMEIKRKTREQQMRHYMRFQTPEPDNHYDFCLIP
UniProt Q14201: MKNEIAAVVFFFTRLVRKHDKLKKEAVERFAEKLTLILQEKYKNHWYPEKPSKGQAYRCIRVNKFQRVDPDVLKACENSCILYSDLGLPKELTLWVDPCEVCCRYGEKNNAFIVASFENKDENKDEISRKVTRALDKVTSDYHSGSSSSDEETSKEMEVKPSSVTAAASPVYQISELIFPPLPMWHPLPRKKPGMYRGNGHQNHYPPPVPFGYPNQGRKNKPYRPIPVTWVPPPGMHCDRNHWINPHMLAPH
UniProt P62324: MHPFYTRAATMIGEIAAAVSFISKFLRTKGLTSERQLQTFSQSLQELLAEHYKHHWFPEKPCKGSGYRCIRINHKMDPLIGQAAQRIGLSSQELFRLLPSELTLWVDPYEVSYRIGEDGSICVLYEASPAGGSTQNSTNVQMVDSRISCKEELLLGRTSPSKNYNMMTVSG
UniProt A6H8Y1: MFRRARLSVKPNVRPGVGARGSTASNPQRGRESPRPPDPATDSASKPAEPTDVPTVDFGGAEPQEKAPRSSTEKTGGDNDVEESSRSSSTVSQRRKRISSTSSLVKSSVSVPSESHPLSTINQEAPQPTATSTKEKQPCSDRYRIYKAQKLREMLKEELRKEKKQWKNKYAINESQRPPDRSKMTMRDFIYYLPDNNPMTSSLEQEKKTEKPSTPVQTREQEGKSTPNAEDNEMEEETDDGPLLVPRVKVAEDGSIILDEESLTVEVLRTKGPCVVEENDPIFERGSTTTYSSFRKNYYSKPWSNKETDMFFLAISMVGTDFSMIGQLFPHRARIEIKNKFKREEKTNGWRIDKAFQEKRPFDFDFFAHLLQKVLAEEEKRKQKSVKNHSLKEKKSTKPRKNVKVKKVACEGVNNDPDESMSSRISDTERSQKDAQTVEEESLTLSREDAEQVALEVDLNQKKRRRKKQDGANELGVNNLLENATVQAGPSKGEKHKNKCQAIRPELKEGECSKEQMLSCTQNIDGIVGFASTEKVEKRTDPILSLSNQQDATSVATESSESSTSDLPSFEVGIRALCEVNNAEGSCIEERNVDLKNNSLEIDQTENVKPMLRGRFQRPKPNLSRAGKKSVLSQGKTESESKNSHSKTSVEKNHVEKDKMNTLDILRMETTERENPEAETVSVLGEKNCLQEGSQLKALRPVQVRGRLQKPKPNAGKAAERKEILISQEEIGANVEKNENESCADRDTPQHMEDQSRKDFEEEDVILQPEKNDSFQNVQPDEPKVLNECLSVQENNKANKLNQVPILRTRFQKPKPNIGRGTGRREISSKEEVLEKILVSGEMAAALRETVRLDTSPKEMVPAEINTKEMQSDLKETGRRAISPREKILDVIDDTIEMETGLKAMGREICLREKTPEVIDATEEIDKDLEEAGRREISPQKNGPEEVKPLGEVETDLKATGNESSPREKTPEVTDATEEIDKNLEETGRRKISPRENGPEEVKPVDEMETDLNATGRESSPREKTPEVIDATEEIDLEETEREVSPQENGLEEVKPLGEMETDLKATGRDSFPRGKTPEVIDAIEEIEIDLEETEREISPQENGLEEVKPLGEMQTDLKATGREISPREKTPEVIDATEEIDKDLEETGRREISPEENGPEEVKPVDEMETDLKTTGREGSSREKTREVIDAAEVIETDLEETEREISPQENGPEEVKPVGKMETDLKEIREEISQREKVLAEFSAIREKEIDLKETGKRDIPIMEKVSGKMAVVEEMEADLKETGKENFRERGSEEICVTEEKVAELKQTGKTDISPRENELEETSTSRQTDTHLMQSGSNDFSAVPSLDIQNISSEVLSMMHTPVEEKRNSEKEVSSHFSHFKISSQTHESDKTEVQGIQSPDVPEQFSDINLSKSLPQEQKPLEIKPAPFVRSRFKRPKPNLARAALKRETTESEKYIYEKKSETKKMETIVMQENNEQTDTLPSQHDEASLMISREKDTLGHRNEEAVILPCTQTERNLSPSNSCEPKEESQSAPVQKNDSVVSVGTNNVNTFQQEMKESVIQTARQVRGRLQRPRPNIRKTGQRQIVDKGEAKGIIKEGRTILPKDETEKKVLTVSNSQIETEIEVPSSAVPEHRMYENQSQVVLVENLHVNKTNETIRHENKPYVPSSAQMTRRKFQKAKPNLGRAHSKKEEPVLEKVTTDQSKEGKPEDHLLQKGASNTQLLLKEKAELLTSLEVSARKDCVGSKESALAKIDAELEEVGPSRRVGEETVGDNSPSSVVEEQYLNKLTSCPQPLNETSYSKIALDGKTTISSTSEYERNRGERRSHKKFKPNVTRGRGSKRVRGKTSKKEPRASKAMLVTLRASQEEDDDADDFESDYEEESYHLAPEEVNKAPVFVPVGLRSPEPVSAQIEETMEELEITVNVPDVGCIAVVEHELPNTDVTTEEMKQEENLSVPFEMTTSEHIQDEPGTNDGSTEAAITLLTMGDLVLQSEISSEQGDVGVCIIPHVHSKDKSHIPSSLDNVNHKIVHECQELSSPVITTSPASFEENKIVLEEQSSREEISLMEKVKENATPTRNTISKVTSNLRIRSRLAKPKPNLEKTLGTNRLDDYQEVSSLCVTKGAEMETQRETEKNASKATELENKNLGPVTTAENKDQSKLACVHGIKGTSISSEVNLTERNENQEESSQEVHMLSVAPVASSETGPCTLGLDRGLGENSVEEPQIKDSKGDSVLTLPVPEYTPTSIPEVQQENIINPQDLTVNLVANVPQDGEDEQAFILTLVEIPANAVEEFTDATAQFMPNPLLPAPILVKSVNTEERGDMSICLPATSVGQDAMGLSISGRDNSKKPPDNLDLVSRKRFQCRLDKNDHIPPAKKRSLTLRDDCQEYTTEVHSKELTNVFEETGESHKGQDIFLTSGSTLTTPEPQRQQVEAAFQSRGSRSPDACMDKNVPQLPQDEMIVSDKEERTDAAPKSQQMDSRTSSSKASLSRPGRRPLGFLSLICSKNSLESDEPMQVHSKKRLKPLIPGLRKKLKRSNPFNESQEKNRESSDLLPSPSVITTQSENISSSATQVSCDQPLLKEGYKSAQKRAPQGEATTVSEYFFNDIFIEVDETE
UniProt Q8TDL5: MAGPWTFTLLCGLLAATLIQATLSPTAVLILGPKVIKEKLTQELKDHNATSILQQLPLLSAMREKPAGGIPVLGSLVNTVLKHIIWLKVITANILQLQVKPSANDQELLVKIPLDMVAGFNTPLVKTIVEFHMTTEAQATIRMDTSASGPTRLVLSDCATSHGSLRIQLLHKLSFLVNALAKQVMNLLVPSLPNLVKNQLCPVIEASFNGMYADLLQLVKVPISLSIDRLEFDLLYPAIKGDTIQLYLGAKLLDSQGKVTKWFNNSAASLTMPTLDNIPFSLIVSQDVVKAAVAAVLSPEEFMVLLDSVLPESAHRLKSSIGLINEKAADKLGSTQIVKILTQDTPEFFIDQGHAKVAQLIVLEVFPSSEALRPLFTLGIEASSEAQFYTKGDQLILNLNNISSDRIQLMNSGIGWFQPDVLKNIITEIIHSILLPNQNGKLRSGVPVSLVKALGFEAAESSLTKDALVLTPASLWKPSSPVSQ
UniProt Q96IK1: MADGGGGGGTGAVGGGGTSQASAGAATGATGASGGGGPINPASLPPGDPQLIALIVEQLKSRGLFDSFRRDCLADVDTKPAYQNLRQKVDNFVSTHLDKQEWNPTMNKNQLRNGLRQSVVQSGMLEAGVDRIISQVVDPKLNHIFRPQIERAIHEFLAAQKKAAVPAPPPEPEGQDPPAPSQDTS
UniProt O60238, whole entry, looked up: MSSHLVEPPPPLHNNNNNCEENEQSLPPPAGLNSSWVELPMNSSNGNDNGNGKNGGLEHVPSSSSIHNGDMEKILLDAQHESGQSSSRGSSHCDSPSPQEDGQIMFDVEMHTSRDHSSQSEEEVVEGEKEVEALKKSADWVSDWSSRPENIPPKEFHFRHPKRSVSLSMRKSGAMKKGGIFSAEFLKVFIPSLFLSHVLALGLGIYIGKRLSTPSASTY
UniProt Q4VC05, whole entry, looked up: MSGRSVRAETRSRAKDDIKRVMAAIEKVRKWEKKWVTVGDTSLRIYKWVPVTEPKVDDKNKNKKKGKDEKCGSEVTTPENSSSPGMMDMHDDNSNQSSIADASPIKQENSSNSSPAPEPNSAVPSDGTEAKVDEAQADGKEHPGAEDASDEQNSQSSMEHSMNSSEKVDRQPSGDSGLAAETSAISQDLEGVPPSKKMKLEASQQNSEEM
UniProt Q9BX70: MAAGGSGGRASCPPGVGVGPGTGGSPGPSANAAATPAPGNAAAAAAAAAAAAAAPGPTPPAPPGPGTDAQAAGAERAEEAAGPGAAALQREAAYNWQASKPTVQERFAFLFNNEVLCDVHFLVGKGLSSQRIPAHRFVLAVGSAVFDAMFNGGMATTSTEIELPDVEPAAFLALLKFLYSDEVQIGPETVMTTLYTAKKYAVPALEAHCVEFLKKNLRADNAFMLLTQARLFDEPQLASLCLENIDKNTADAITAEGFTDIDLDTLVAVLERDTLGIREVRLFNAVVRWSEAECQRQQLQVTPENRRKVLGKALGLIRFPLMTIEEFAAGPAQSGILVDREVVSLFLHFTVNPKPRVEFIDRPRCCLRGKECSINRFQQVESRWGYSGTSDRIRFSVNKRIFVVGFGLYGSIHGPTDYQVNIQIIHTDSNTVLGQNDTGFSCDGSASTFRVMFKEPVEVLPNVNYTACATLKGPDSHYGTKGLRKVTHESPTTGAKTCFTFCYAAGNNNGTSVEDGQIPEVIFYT
UniProt O60513: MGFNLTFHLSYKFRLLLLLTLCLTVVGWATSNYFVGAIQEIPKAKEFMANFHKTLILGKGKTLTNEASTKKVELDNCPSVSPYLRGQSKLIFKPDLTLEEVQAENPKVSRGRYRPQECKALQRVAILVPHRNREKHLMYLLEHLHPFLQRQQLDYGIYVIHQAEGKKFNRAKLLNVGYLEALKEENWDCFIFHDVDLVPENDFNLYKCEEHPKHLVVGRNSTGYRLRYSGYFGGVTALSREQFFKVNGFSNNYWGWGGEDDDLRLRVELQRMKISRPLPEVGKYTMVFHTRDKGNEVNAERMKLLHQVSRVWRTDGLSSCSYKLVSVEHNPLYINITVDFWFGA
UniProt Q8TBE0: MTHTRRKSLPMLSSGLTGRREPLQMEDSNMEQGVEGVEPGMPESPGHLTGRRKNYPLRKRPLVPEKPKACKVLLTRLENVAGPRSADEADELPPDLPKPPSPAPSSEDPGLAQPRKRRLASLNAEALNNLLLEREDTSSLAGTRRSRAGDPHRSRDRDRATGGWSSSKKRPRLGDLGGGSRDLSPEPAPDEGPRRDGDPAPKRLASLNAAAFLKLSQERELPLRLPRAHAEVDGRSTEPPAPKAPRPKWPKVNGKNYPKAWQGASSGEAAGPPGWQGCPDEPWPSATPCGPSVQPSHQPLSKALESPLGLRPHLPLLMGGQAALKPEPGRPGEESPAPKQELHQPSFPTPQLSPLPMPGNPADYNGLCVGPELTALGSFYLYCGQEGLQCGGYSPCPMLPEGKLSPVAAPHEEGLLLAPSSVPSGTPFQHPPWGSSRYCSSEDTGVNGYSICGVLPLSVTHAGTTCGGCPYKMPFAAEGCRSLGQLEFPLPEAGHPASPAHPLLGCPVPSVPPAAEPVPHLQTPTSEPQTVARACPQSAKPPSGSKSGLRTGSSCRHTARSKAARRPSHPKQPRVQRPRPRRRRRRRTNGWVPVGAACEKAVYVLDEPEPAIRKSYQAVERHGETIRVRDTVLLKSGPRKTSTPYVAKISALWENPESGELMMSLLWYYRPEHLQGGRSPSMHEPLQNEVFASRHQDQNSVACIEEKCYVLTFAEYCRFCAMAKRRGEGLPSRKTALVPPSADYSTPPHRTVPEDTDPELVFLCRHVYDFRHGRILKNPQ
UniProt O75363: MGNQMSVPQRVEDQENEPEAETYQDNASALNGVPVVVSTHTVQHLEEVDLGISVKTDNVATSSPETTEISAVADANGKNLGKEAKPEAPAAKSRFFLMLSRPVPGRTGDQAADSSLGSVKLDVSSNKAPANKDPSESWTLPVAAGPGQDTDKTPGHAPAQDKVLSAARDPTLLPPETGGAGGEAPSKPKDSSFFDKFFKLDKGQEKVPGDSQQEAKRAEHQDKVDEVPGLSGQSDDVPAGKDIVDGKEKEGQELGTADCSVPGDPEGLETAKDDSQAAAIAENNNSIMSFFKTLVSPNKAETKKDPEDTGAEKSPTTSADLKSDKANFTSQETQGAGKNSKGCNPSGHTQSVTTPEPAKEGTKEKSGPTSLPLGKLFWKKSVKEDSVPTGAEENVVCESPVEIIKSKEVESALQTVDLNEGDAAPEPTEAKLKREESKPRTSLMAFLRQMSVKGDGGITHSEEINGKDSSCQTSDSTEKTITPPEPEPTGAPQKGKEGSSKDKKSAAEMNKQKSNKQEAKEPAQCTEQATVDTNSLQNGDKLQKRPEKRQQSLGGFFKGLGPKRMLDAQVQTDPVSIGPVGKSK

Experiments:
Assay in all cases: log2 fold change, soluble protein after heating vs DMSO (PISA); higher = thermal stabilisation; K562 lysate, 10 uM; active = over 0.2 and 3.5 SD of the protein, either way, in both replicates (recomputed)
erlotinib = compound: C#Cc1cccc(Nc2ncnc3cc(OCCOC)c(OCCOC)cc23)c1 [erlotinib]
Method in brief: (§1)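 To prepare the extract, K562 pellets were dounce-homogenised in PBS pH 7.4 with 1 mM MgCl2, giving crude material at 1 mg/mL protein. This was treated with 10 μM compound for 30 min, then heated in aliquots for 3 min over 48°C-58°C before pooling and addition of NP-40 to 0.5% at 4°C. Centrifugation at 21,000xg for 90 min left soluble protein in the supernatant, which TMTpro 16plex LC-MS/MS quantified with equalised channel sums. Results are log-two fold changes in thermal stability compared with solvent controls, from duplicates.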

[1] = compound: C/C(=N\NC(=O)C1=CC(=CC=C1)S(=O)(=O)N2CCOCC2)/C3=C(C=CC(=C3)Cl)O
Method in brief: as §1

[2] = compound: C1=CC(=CC=C1C2=NC3=C(N2)C=C(C=C3)C(=O)N)OC4=CC=C(C=C4)Cl
Method in brief: as §1

[3] = compound: C1=CC2=C(C=CC(=C2)/C=C\3/C(=O)NC(=NCC4=CC=CS4)S3)N=C1
Method in brief: as §1

[4] = compound: C1=CC2=NC=CN=C2C=C1/C=C/3\C(=O)NC(=O)S3
Method in brief: as §1

[5] = compound: C1=CC=C2C(=C1)C3=NNC4=CC=CC(=C43)C2=O
Method in brief: as §1

[6] = compound: C1CCN(C1)C(=O)NC2=CC=CC(=C2)NC3=NC=C(C(=N3)NCCC4=CN=CN4)Br
Method in brief: as §1

[7] = compound: C1CN(CCC1(CC2=CC=C(C=C2)Cl)N)C3=NC=NC4=C3C=CN4
Method in brief: as §1

IRAK-1-4 Inhibitor I = compound: C1COCCN1CCN2C3=CC=CC=C3N=C2NC(=O)C4=CC(=CC=C4)[N+](=O)[O-] [IRAK-1-4 Inhibitor I]
Method in brief: as §1

ibrutinib = compound: C=CC(=O)N1CCC[C@@H](n2nc(-c3ccc(Oc4ccccc4)cc3)c3c(N)ncnc32)C1 [ibrutinib]
Method in brief: as §1

ralimetinib = compound: CC(C)(C)Cn1c(N)nc2ccc(-c3[nH]c(C(C)(C)C)nc3-c3ccc(F)cc3)nc21 [ralimetinib]
Method in brief: as §1

[8] = compound: CC(C)C1=C2N=C(C=C(N2N=C1)NCC3=CC=CC=C3)NCCCCCCN
Method in brief: as §1

[9] = compound: CC1=C(C(CC(=O)N1)C2=CC=C(C=C2)C(F)(F)F)C(=O)NC3=C(C=C4C(=C3)C=NN4)F
Method in brief: as §1

[10] = compound: CC1=C(C2=C(C=C1)C(=O)C3=CC=CC=C3N2CCCN)C
Method in brief: as §1

[11] = compound: CC1=C(C=C(C=C1)NC(=O)C2=CC(=CC=C2)C(C)(C)C#N)NC3=CC4=C(C=C3)N=CN(C4=O)C
Method in brief: as §1

[12] = compound: CC1=CC=C(C=C1)SC2=C3C=C(SC3=CN=C2)C(=O)N
Method in brief: as §1

[13] = compound: C1=CC=C(C=C1)C2=NC(=C(N2)C3=CC=NC=C3)C4=CC(=C(C=C4)Cl)O
Method in brief: as §1

[14] = compound: CC(C)(O)CC(=O)NCCn1ccc2ncnc(Nc3ccc(Oc4cccc(C(F)(F)F)c4)c(Cl)c3)c21
Method in brief: as §1

[15] = compound: CC1=C(C=C(C=C1)NC(=O)C2=CC(=CC=C2)N(C)C)NC(=O)C3=CC=C(C=C3)O
Method in brief: as §1

[16] = compound: CC(=O)c1cnc2ccc(-c3cc(Cl)c(O)c(Cl)c3)nc2c1N[C@H]1CC[C@H](CN(C)C)CC1
Method in brief: as §1

Measured: log2 fold change

BRAF (UniProt P15056)
active: [11] 0.65
inactive: erlotinib -0.05 | [1] -0.101 | [2] -0.04 | [3] 0.013 | [4] -0.008 | [5] 0 | [6] -0.007 | [7] 0.027 | IRAK-1-4 Inhibitor I -0.005 | ibrutinib 0.29 | ralimetinib 0.008 | [8] 0.032 | [9] 0.004 | [10] -0.111 | [12] -0.021

BEX4 (UniProt Q9NWD9)
inactive: erlotinib -0.006 | [2] 0.015 | [13] -0.001 | IRAK-1-4 Inhibitor I -0.052 | ralimetinib -0.024 | [14] 0.109 | [8] 0.003 | [9] 0.038 | [10] 0.013 | [11] 0.068 | [15] 0.043

BLVRA (UniProt C9J1E1)
inactive: [16] 0.054 | [9] 0.147 | [12] 0.057

BTG3 isoform 2 (UniProt Q14201)
inactive: erlotinib 0.116 | [2] 0.189 | [6] 0.227 | [7] -0.011 | [8] 0.046

BCAP31, A0A2R8Y5M6
inactive: [1] 0.07 | [3] -0.212 | [5] 0.074 | [6] -0.093 | [7] 0.006

BEX2 isoform 2 (UniProt Q9BXY8)
inactive: [1] 0.166 | [3] -0.096 | [5] 0.147 | [16] -0.107 | [12] -0.112

BMT2 (UniProt Q1RMZ1)
inactive: [9] 0.586

BANP isoform 7 (UniProt Q8N9N5)
inactive: erlotinib 0.189 | [2] 0 | [6] 0.129 | [7] 0.109 | [8] -0.186

BMP1 (UniProt P13497)
inactive: [13] -0.081 | IRAK-1-4 Inhibitor I -0.219 | ralimetinib 0.453 | [14] 0.027 | [15] -0.322

BBS4 isoform 2 (UniProt Q96RK4)
inactive: [9] 0.03 | [10] 0.029

BRF2 (UniProt Q9HAW0)
inactive: [6] -0.191 | [7] 0.222

BTG1 (UniProt P62324)
inactive: [11] -0.119

BPTF (UniProt F5GXF5)
inactive: erlotinib -0.079 | [2] 0.087 | [13] 0.066 | IRAK-1-4 Inhibitor I 0.024 | ralimetinib 0.112 | [14] -0.174 | [8] 0.002 | [15] -0.016

BTBD10 isoform 2 (UniProt Q9BSF8)
inactive: [4] 0.108 | ibrutinib 0.134 | [9] -0.068 | [10] -0.126 | [11] 0.043

BRWD1 (UniProt Q9NSI6)
inactive: [13] -0.125 | IRAK-1-4 Inhibitor I 0.007 | ralimetinib 0.118 | [14] -0.214 | [10] -0.28 | [11] -0.397 | [15] -0.08

BDP1 (UniProt A6H8Y1)
inactive: [13] -0.135 | [6] -0.154 | [7] 0.17 | IRAK-1-4 Inhibitor I -0.026 | ralimetinib 0.117 | [14] 0.021 | [11] 0.008 | [15] -0.14

BPIFB1 (UniProt Q8TDL5)
inactive: [6] -0.26 | [7] 0.045 | [9] 2.15

BAIAP2 isoform 6 (UniProt Q9UQB8)
inactive: [11] -0.02

BOD1 (UniProt Q96IK1)
inactive: [13] 0.021 | IRAK-1-4 Inhibitor I 0.007 | [16] -0.137 | ralimetinib 0.042 | [14] -0.014 | [10] -0.276 | [11] -0.002 | [15] -0.002 | [12] 0.043

BCL2 (UniProt P10415)
inactive: [4] -0.067 | [13] 0.271 | IRAK-1-4 Inhibitor I 0.052 | ibrutinib 0.013 | ralimetinib -0.049 | [14] -0.123 | [15] -0.275

BNIP3L (UniProt O60238)
inactive: [6] -0.019 | [7] 0.057 | [11] -0.01

BCL7A (UniProt Q4VC05)
inactive: [4] -0.054 | [13] 0.166 | IRAK-1-4 Inhibitor I 0.128 | ibrutinib -0.057 | [16] -0.056 | ralimetinib 0.012 | [14] -0.174 | [10] 0.039 | [11] 0.084 | [15] 0.075 | [12] 0.085

BHLHE40 (UniProt O14503)
inactive: erlotinib -0.002 | [2] 0.099 | [13] -0.019 | IRAK-1-4 Inhibitor I 0.041 | ralimetinib 0.01 | [14] -0.052 | [8] 0.009 | [11] -0.097 | [15] 0.006

BTBD2 (UniProt Q9BX70)
inactive: erlotinib -0.079 | [2] 0.195 | [6] 0.015 | [7] -0.044 | [8] -0.018 | [11] -0.077

BRMS1L (UniProt Q5PSV4)
inactive: [1] -0.001 | [3] -0.122 | [5] -0.234 | [6] -0.039 | [7] -0.07 | [16] 0.013 | [12] 0.012

B4GALNT4 (UniProt Q76KP1)
inactive: [11] -0.125

BNIP2 (UniProt H7C096)
inactive: [4] -0.074 | [6] 0.036 | [7] -0.021 | ibrutinib 0.073 | [16] -0.005 | [12] -0.024

BTBD9 (UniProt Q96Q07)
inactive: erlotinib 0.072 | [2] 0.068 | [16] -0.266 | [8] -0.256 | [12] 0.226

BRAF, A0A2R8Y8E0
inactive: [1] -0.005 | [3] 0.001 | [5] 0.119 | [6] 0.067 | [7] -0.045

Seven consecutive entries already listed:
BEX2 isoform 2 (UniProt Q9BXY8)
inactive: [1] 0.166 | [3] -0.096 | [5] 0.147 | [16] -0.107 | [12] -0.112

BMT2 (UniProt Q1RMZ1)
inactive: [9] 0.586

BANP isoform 7 (UniProt Q8N9N5)
inactive: erlotinib 0.189 | [2] 0 | [6] 0.129 | [7] 0.109 | [8] -0.186

BMP1 (UniProt P13497)
inactive: [13] -0.081 | IRAK-1-4 Inhibitor I -0.219 | ralimetinib 0.453 | [14] 0.027 | [15] -0.322

BBS4 isoform 2 (UniProt Q96RK4)
inactive: [9] 0.03 | [10] 0.029

BRF2 (UniProt Q9HAW0)
inactive: [6] -0.191 | [7] 0.222

BTG1 (UniProt P62324)
inactive: [11] -0.119

More results follow.

B4GALT4 (UniProt O60513)
inactive: erlotinib -0.081 | [2] -0.099 | [8] 0.048 | [10] -0.006

BAHD1 (UniProt Q8TBE0)
inactive: [4] 0.103 | [13] -0.012 | IRAK-1-4 Inhibitor I -0.064 | ibrutinib -0.194 | ralimetinib -0.011 | [14] -0.143 | [10] -0.199 | [11] -0.151 | [15] -0.01

BCL2L11 (UniProt O43521)
inactive: [1] -0.036 | [3] -0.079 | [4] -0.1 | [5] -0.075 | ibrutinib 0.057 | [11] 0.167

BBX (UniProt Q8WY36)
inactive: erlotinib 0.016 | [2] 0.029 | [6] 0.059 | [7] -0.135 | [8] -0.036 | [9] -0.427 | [10] 0.128 | [11] 0.094

BICRAL (UniProt Q6AI39)
inactive: [13] 0.076 | [6] -0.151 | [7] 0.042 | IRAK-1-4 Inhibitor I 0.077 | ralimetinib 0.102 | [14] 0 | [15] 0.089

BCAS1 isoform 2 (UniProt O75363)
inactive: [4] -0.044 | [13] 0.069 | [6] -0.048 | [7] -0.043 | IRAK-1-4 Inhibitor I 0.108 | ibrutinib -0.013 | [16] -0.07 | ralimetinib -0.111 | [14] -0.409 | [9] -0.002 | [11] 0.09 | [15] -0.04 | [12] -0.093
